Results reported in patent US20110038885A1 (priority 2007, published 2011).
Bridge positions count the residues as written; N and C are the ends. Square brackets hold non-standard residues; d marks the D form. * marks the point of attachment. Lauroyl = CCCCCCCCCCCC(=O)*; Orn = NCCC[C@H](N)C(=O)O; Dab = NCC[C@H](N)C(=O)O; Dap = NC[C@H](N)C(=O)O

Test: general procedure: Fmoc solid-phase peptide synthesis; Rink Amide MBHA resin (0.58 mmol/g or 0.78 mmol/g); Wang resin for C-terminal acids; DIC/HOBt
Conditions: whole synthesis, analytical HPLC, scale of the general procedure 0.090 mmol

## Ac-DKWIQK-NH2 (lactam 1-6; SMILES CC[C@H](C)[C@@H]1NC(=O)[C@H](Cc2c[nH]c3ccccc23)NC(=O)[C@H](CCCCN)NC(=O)[C@@H](NC(C)=O)CC(=O)NCCCC[C@@H](C(N)=O)NC(=O)[C@H](CCC(N)=O)NC1=O)
  purity (crude or final not stated): 99%

## Ac-DKWIQ[Dab]-NH2 (lactam 1-6; SMILES CC[C@H](C)[C@@H]1NC(=O)[C@H](Cc2c[nH]c3ccccc23)NC(=O)[C@H](CCCCN)NC(=O)[C@@H](NC(C)=O)CC(=O)NCC[C@@H](C(N)=O)NC(=O)[C@H](CCC(N)=O)NC1=O)
  purity (crude or final not stated): 99.9%

## Ac-DKWIQ[Dap]-NH2 (lactam 1-6; SMILES CC[C@H](C)[C@@H]1NC(=O)[C@H](Cc2c[nH]c3ccccc23)NC(=O)[C@H](CCCCN)NC(=O)[C@@H](NC(C)=O)CC(=O)NC[C@@H](C(N)=O)NC(=O)[C@H](CCC(N)=O)NC1=O)
  purity (crude or final not stated): 98.7%

## Ac-DKWIQ[Orn]-NH2 (lactam 1-6; SMILES CC[C@H](C)[C@@H]1NC(=O)[C@H](Cc2c[nH]c3ccccc23)NC(=O)[C@H](CCCCN)NC(=O)[C@@H](NC(C)=O)CC(=O)NCCC[C@@H](C(N)=O)NC(=O)[C@H](CCC(N)=O)NC1=O)
  purity (crude or final not stated): 97.3%

## Ac-EKWIQK-NH2 (lactam 1-6; SMILES CC[C@H](C)[C@@H]1NC(=O)[C@H](Cc2c[nH]c3ccccc23)NC(=O)[C@H](CCCCN)NC(=O)[C@@H](NC(C)=O)CCC(=O)NCCCC[C@@H](C(N)=O)NC(=O)[C@H](CCC(N)=O)NC1=O)
  purity (crude or final not stated): 97.3%

## Ac-EKWIQ[Dab]-NH2 (lactam 1-6; SMILES CC[C@H](C)[C@@H]1NC(=O)[C@H](Cc2c[nH]c3ccccc23)NC(=O)[C@H](CCCCN)NC(=O)[C@@H](NC(C)=O)CCC(=O)NCC[C@@H](C(N)=O)NC(=O)[C@H](CCC(N)=O)NC1=O)
  purity (crude or final not stated): 98.2%

## Ac-EKWIQ[Dap]-NH2 (lactam 1-6; SMILES CC[C@H](C)[C@@H]1NC(=O)[C@H](Cc2c[nH]c3ccccc23)NC(=O)[C@H](CCCCN)NC(=O)[C@@H](NC(C)=O)CCC(=O)NC[C@@H](C(N)=O)NC(=O)[C@H](CCC(N)=O)NC1=O)
  purity (crude or final not stated): 97.2%

## Ac-EKWIQ[Orn]-NH2 (lactam 1-6; SMILES CC[C@H](C)[C@@H]1NC(=O)[C@H](Cc2c[nH]c3ccccc23)NC(=O)[C@H](CCCCN)NC(=O)[C@@H](NC(C)=O)CCC(=O)NCCC[C@@H](C(N)=O)NC(=O)[C@H](CCC(N)=O)NC1=O)
  purity (crude or final not stated): 99.2%

## Ac-K(Lauroyl)CLDPKQKWIQC-NH2 (disulfide 2-12; SMILES CCCCCCCCCCCC(=O)NCCCC[C@H](NC(C)=O)C(=O)N[C@H]1CSSC[C@@H](C(N)=O)NC(=O)[C@H](CCC(N)=O)NC(=O)[C@H]([C@@H](C)CC)NC(=O)[C@H](Cc2c[nH]c3ccccc23)NC(=O)[C@H](CCCCN)NC(=O)[C@H](CCC(N)=O)NC(=O)[C@H](CCCCN)NC(=O)[C@@H]2CCCN2C(=O)[C@H](CC(=O)O)NC(=O)[C@H](CC(C)C)NC1=O)
  purity (crude or final not stated): 99%

## Ac-KCLDPKQKWIQC-NH2 (disulfide 2-12; SMILES CC[C@H](C)[C@@H]1NC(=O)[C@H](Cc2c[nH]c3ccccc23)NC(=O)[C@H](CCCCN)NC(=O)[C@H](CCC(N)=O)NC(=O)[C@H](CCCCN)NC(=O)[C@@H]2CCCN2C(=O)[C@H](CC(=O)O)NC(=O)[C@H](CC(C)C)NC(=O)[C@@H](NC(=O)[C@H](CCCCN)NC(C)=O)CSSC[C@@H](C(N)=O)NC(=O)[C@H](CCC(N)=O)NC1=O)
  purity (crude or final not stated): 94%

## Ac-KKWIQD-NH2 (lactam 1-6; SMILES CC[C@H](C)[C@@H]1NC(=O)[C@H](Cc2c[nH]c3ccccc23)NC(=O)[C@H](CCCCN)NC(=O)[C@@H](NC(C)=O)CCCCNC(=O)C[C@@H](C(N)=O)NC(=O)[C@H](CCC(N)=O)NC1=O)
  purity (crude or final not stated): 99.9%

## Ac-KKWIQE-NH2 (lactam 1-6; SMILES CC[C@H](C)[C@@H]1NC(=O)[C@H](Cc2c[nH]c3ccccc23)NC(=O)[C@H](CCCCN)NC(=O)[C@@H](NC(C)=O)CCCCNC(=O)CC[C@@H](C(N)=O)NC(=O)[C@H](CCC(N)=O)NC1=O)
  purity (crude or final not stated): 74.5%

## Ac-LCDPKQKWIQC-NH2 (disulfide 2-11; SMILES CC[C@H](C)[C@@H]1NC(=O)[C@H](Cc2c[nH]c3ccccc23)NC(=O)[C@H](CCCCN)NC(=O)[C@H](CCC(N)=O)NC(=O)[C@H](CCCCN)NC(=O)[C@@H]2CCCN2C(=O)[C@H](CC(=O)O)NC(=O)[C@@H](NC(=O)[C@H](CC(C)C)NC(C)=O)CSSC[C@@H](C(N)=O)NC(=O)[C@H](CCC(N)=O)NC1=O)
  purity (crude or final not stated): 93.2%

## Ac-LDCPKQKWIQC-NH2 (disulfide 3-11; SMILES CC[C@H](C)[C@@H]1NC(=O)[C@H](Cc2c[nH]c3ccccc23)NC(=O)[C@H](CCCCN)NC(=O)[C@H](CCC(N)=O)NC(=O)[C@H](CCCCN)NC(=O)[C@@H]2CCCN2C(=O)[C@@H](NC(=O)[C@H](CC(=O)O)NC(=O)[C@H](CC(C)C)NC(C)=O)CSSC[C@@H](C(N)=O)NC(=O)[C@H](CCC(N)=O)NC1=O)
  purity (crude or final not stated): 95.4%

## Ac-LDPCKQKWIQC-NH2 (disulfide 4-11; SMILES CC[C@H](C)[C@@H]1NC(=O)[C@H](Cc2c[nH]c3ccccc23)NC(=O)[C@H](CCCCN)NC(=O)[C@H](CCC(N)=O)NC(=O)[C@H](CCCCN)NC(=O)[C@@H](NC(=O)[C@@H]2CCCN2C(=O)[C@H](CC(=O)O)NC(=O)[C@H](CC(C)C)NC(C)=O)CSSC[C@@H](C(N)=O)NC(=O)[C@H](CCC(N)=O)NC1=O)
  purity (crude or final not stated): 78.9%

## Ac-LDPKCQKWIQC-NH2 (disulfide 5-11; SMILES CC[C@H](C)[C@@H]1NC(=O)[C@H](Cc2c[nH]c3ccccc23)NC(=O)[C@H](CCCCN)NC(=O)[C@H](CCC(N)=O)NC(=O)[C@@H](NC(=O)[C@H](CCCCN)NC(=O)[C@@H]2CCCN2C(=O)[C@H](CC(=O)O)NC(=O)[C@H](CC(C)C)NC(C)=O)CSSC[C@@H](C(N)=O)NC(=O)[C@H](CCC(N)=O)NC1=O)
  purity (crude or final not stated): 86.5%

## Ac-LDPKQCKWIQC-NH2 (disulfide 6-11; SMILES CC[C@H](C)[C@@H]1NC(=O)[C@H](Cc2c[nH]c3ccccc23)NC(=O)[C@H](CCCCN)NC(=O)[C@@H](NC(=O)[C@H](CCC(N)=O)NC(=O)[C@H](CCCCN)NC(=O)[C@@H]2CCCN2C(=O)[C@H](CC(=O)O)NC(=O)[C@H](CC(C)C)NC(C)=O)CSSC[C@@H](C(N)=O)NC(=O)[C@H](CCC(N)=O)NC1=O)
  purity (crude or final not stated): 82.8%

## Ac-QCKWIQC-NH2 (disulfide 2-7; SMILES CC[C@H](C)[C@@H]1NC(=O)[C@H](Cc2c[nH]c3ccccc23)NC(=O)[C@H](CCCCN)NC(=O)[C@@H](NC(=O)[C@H](CCC(N)=O)NC(C)=O)CSSC[C@@H](C(N)=O)NC(=O)[C@H](CCC(N)=O)NC1=O)
  purity (crude or final not stated): 81.9%

## Ac-[Dab]KWIQD-NH2 (lactam 1-6; SMILES CC[C@H](C)[C@@H]1NC(=O)[C@H](Cc2c[nH]c3ccccc23)NC(=O)[C@H](CCCCN)NC(=O)[C@@H](NC(C)=O)CCNC(=O)C[C@@H](C(N)=O)NC(=O)[C@H](CCC(N)=O)NC1=O)
  purity (crude or final not stated): 98.8%

## Ac-[Dab]KWIQE-NH2 (lactam 1-6; SMILES CC[C@H](C)[C@@H]1NC(=O)[C@H](Cc2c[nH]c3ccccc23)NC(=O)[C@H](CCCCN)NC(=O)[C@@H](NC(C)=O)CCNC(=O)CC[C@@H](C(N)=O)NC(=O)[C@H](CCC(N)=O)NC1=O)
  purity (crude or final not stated): 90%
